# Measurements from the supplement of paper PMC4604168 (melanoma cell lines).
# This is one part of the list. Repeats are few or missing, and single values can be far off.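 Imaging used 1,536-well plates; nuclei positive for cleaved PARP by antibody were divided by total DNA-stained nuclei to yield the apoptosis fraction. Doses for screening kept most cells viable, and cell lines differ markedly in resting and induced cleaved-PARP levels.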
# Key:
# Experiment in all cases: cleaved PARP positive nuclei fraction relative to DMSO control; melanoma cells; higher = more apoptosis
# Settings in all cases: library dose: low library concentration; 72 h
# [1] = test system: 501Mel
# [2] = test system: A101D
# [3] = test system: A2058
# [4] = test system: C32
# [5] = test system: CBRC008 (line from a melanoma biopsy)
# [6] = test system: CBRC014 (line from a melanoma biopsy)
# [7] = test system: CBRC016 (line from a melanoma biopsy)
# [8] = test system: CBRC017 (line from a melanoma biopsy)
# [9] = test system: COLO792
# [10] = test system: COLO800
# [11] = test system: COLO829
# [12] = test system: G361
# [13] = test system: IPC-298
# [14] = test system: IST-MEL1
# [15] = test system: LB2518-MEL
# [16] = test system: LOXIMVI
SMILES,cleaved PARP positive nuclei fraction [1] [%],cleaved PARP positive nuclei fraction [2] [%],cleaved PARP positive nuclei fraction [3] [%],cleaved PARP positive nuclei fraction [4] [%],cleaved PARP positive nuclei fraction [5] [%],cleaved PARP positive nuclei fraction [6] [%],cleaved PARP positive nuclei fraction [7] [%],cleaved PARP positive nuclei fraction [8] [%],cleaved PARP positive nuclei fraction [9] [%],cleaved PARP positive nuclei fraction [10] [%],cleaved PARP positive nuclei fraction [11] [%],cleaved PARP positive nuclei fraction [12] [%],cleaved PARP positive nuclei fraction [13] [%],cleaved PARP positive nuclei fraction [14] [%],cleaved PARP positive nuclei fraction [15] [%],cleaved PARP positive nuclei fraction [16] [%]
"C[C@@H](N)c1ccc(C(=O)Nc2ccnc3[nH]ccc23)cc1 + COc1ccc(COc2ccc(Cc3cnc(N)nc3N)cc2OC)cc1 [GW2580] (first compound 0.4 µM, partner dose 1 µM)",55.4,10.2,33.3,41,51.4,124,110,106,32.8,31.8,139,39.6,48.4,192,68.3,247
"CC(=O)O[C@@]12CO[C@@H]1C[C@H](O)[C@@]1(C)C(=O)[C@H](O)C3=C(C)[C@@H](OC(=O)[C@H](O)[C@@H](NC(=O)OC(C)(C)C)c4ccccc4)C[C@@](O)([C@@H](OC(=O)c4ccccc4)[C@H]21)C3(C)C [Docetaxel] + O=c1cc(-c2cccc3c2Sc2ccccc2S3)oc(N2CCOCC2)c1 [KU55933] (first compound 0.0001 µM, partner dose 1 µM)",338,68.9,18100,52.3,314,165,144,137,578,249,148,569,76.5,113,200,26.9
"NC(=O)c1ccc(N(C(N)=O)c2c(F)cccc2F)nc1-c1ccc(F)cc1F + O=C1NC(=O)/C(=C/c2ccc(-c3ccc(F)cc3O)o2)S1 [AS252424] (first compound 0.4 µM, partner dose 1 µM)",182,50.2,91.1,72,75.5,121,79.3,157,146,91.5,77,121,193,163,86,144
"NC(=O)c1ccc(N(C(N)=O)c2c(F)cccc2F)nc1-c1ccc(F)cc1F + O=c1cc(-c2cccc3c2Sc2ccccc2S3)oc(N2CCOCC2)c1 [KU55933] (first compound 0.4 µM, partner dose 1 µM)",145,20.9,72.1,27.4,150,130,65.7,85.2,103,172,121,86.2,72.5,118,26.1,89.6
"CC1(C)CCC(c2ccc(Cl)cc2)=C(CN2CCN(c3ccc(C(=O)NS(=O)(=O)c4ccc(N[C@H](CCN5CCOCC5)CSc5ccccc5)c(S(=O)(=O)C(F)(F)F)c4)cc3)CC2)C1 + CCCCCCCCCCCC1=C(O)C(=O)C=C(O)C1=O [Embelin] (first compound 0.4 µM, partner dose 1.2 µM)",74.2,116,261,1130,184,890,518,310,420,137,26.3,150,230,71.1,155,215
"C[C@]1(O)C[C@@H](c2nc(-c3ccc4ccc(-c5ccccc5)nc4c3)c3c(N)nccn32)C1 + COc1cc(N2CCC(N3CCN(C)CC3)CC2)ccc1Nc1ncc(Cl)c(Nc2ccccc2S(=O)(=O)C(C)C)n1 [NVP-TAE684] (first compound 0.4 µM, partner dose 0.08 µM)",144,45.1,78,86.2,194,166,66.2,82,93.5,135,53.4,105,95.5,84.3,123,98.2
